The list does not hold the whole screen: it gathers tests that were run many times, whatever their T/C, doses with no T/C, and many T/C values between a quarter and a half above the control. Further doses and runs are listed elsewhere. T/C is the treated group as % of the vehicle group. Some entries give survivors of the animals treated and no T/C: the source holds a T/C of zero for them, seemingly a mark for toxic or unscored doses. Some doses without a T/C left all or most animals alive at the check, yet need not have been tolerated: survival well below the control is almost never listed, so the zero probably covers shortened survival too. Survivors were counted at the toxicity check, usually on the fifth day, unless a day is given; later deaths do not show. Schedule codes are those of the source, taken here to give the interval after Q, in days (D) or hours (H), and the number of doses after X. Some schedule codes hold Z or #, which are not explained here. Where survival is the endpoint, this PubChem deposit counts one and a half times the control or more as active, and values a quarter to a half above the control carry no call in these data; other NCI protocols may use other cut-offs. Some entries were tested several times; the results are listed from low to high.
Tested on: L1210 leukemia ip in BDF1 mice, survival T/C
Experiment: NCI In Vivo Anticancer Drug Screen. Data for tumor model L1210 Leukemia (intraperitoneal) in B6D2F1 (BDF1) mice
Conditions: T/C endpoint: mean survival time, higher T/C = longer survival

O=C(Oc1c(Cl)c(Cl)c(Cl)c(Cl)c1Cl)c1cc(Cl)cc(Cl)c1Br
survivor count (dose: 200.0 mg/kg/injection, schedule: Q04DX003 (ip), vehicle: saline with Tween-80): 0 of 6 | survivor count (dose: 400.0 mg/kg/injection, schedule: Q04DX003 (ip), vehicle: saline with Tween-80): 0 of 6

O=NN(CCCl)C(=O)Nc1ccc(C(=O)O)cc1
T/C (dose: 0.5 mg/kg/injection, schedule: Q01DX Z (ip), vehicle: saline): 140 % of control | T/C (dose: 0.75 mg/kg/injection, schedule: Q01DX Z (ip), vehicle: saline): 142 % of control | T/C (dose: 1.0 mg/kg/injection, schedule: Q01DX Z (ip), vehicle: saline): 141 % of control | T/C (dose: 1.25 mg/kg/injection, schedule: Q01DX001 (ip), vehicle: carboxymethylcellulose (CMC)): 125 % of control | T/C (dose: 3.7 mg/kg/injection, schedule: Q01DX001 (ip), vehicle: carboxymethylcellulose (CMC)): 126 % of control | T/C (dose: 3.75 mg/kg/injection, schedule: Q01DX001 (ip), vehicle: carboxymethylcellulose (CMC)): 127, 137, 142 % of control | T/C (dose: 5.0 mg/kg/injection, schedule: Q01DX001 (ip), vehicle: carboxymethylcellulose (CMC)): 140 % of control | T/C (dose: 7.5 mg/kg/injection, schedule: Q01DX001 (ip), vehicle: carboxymethylcellulose (CMC)): 146, 147, 152, 162 % of control | T/C (dose: 7.5 mg/kg/injection, schedule: Q## X001 (ip), vehicle: carboxymethylcellulose (CMC)): 145 % of control | T/C (dose: 10.0 mg/kg/injection, schedule: Q01DX001 (ip), vehicle: carboxymethylcellulose (CMC)): 143 % of control | survivor count (dose: 18.0 mg/kg/injection, schedule: Q01DX Z (ip), vehicle: carboxymethylcellulose (CMC)): 6 of 6 | survivor count (dose: 31.0 mg/kg/injection, schedule: Q01DX001 (ip), vehicle: carboxymethylcellulose (CMC)): 5 of 6 | survivor count (dose: 37.0 mg/kg/injection, schedule: Q01DX Z (ip), vehicle: carboxymethylcellulose (CMC)): 3 of 6 | survivor count (dose: 50.0 mg/kg/injection, schedule: Q01DX Z (ip), vehicle: carboxymethylcellulose (CMC)): 1 of 6 | survivor count (dose: 62.0 mg/kg/injection, schedule: Q01DX001 (ip), vehicle: carboxymethylcellulose (CMC)): 4 of 6 | survivor count (dose: 75.0 mg/kg/injection, schedule: Q01DX Z (ip), vehicle: carboxymethylcellulose (CMC)): 0 of 6 | survivor count (dose: 100.0 mg/kg/injection, schedule: Q01DX Z (ip), vehicle: carboxymethylcellulose (CMC)): 0 of 6 | survivor count (dose: 125.0 mg/kg/injection, schedule: Q01DX001 (ip), vehicle: carboxymethylcellulose (CMC)): 1 of 6 | survivor count (dose: 150.0 mg/kg/injection, schedule: Q01DX Z (ip), vehicle: carboxymethylcellulose (CMC)): 0 of 6 | survivor count (dose: 200.0 mg/kg/injection, schedule: Q01DX Z (ip), vehicle: carboxymethylcellulose (CMC)): 0 of 6 | survivor count (dose: 250.0 mg/kg/injection, schedule: Q01DX001 (ip), vehicle: carboxymethylcellulose (CMC)): 0 of 6 | survivor count (dose: 375.0 mg/kg/injection, schedule: Q01DX001 (ip), vehicle: carboxymethylcellulose (CMC)): 0 of 6 | survivor count (dose: 500.0 mg/kg/injection, schedule: Q01DX001 (ip), vehicle: carboxymethylcellulose (CMC)): 0 of 6

C[N+](C)(C)CCCCCC[Si](C)(C)C
survivor count (dose: 80.0 mg/kg/injection, schedule: Q01DX001 (ip), vehicle: saline): 1 of 4 | survivor count (dose: 100.0 mg/kg/injection, schedule: Q01DX001 (ip), vehicle: saline): 0 of 4 | survivor count (dose: 200.0 mg/kg/injection, schedule: Q01DX001 (ip), vehicle: saline): 0 of 4 | survivor count (dose: 400.0 mg/kg/injection, schedule: Q01DX001 (ip), vehicle: saline): 0 of 4

CN1C2CCC1CN(Cc1ccccc1)C2
survivor count (dose: 100.0 mg/kg/injection, schedule: Q04DX003 (ip), vehicle: saline): 1 of 6 | survivor count (dose: 200.0 mg/kg/injection, schedule: Q04DX003 (ip), vehicle: saline): 0 of 6 | survivor count (dose: 400.0 mg/kg/injection, schedule: Q04DX003 (ip), vehicle: saline): 0 of 6

CSc1ccccc1C[P+](c1ccccc1)(c1ccccc1)c1ccccc1
survivor count (dose: 25.0 mg/kg/injection, schedule: Q01DX009 (ip), vehicle: saline with Tween-80): 6 of 6 | survivor count (dose: 50.0 mg/kg/injection, schedule: Q01DX009 (ip), vehicle: saline with Tween-80): 0 of 6 | survivor count (dose: 100.0 mg/kg/injection, schedule: Q01DX009 (ip), vehicle: saline with Tween-80): 0 of 6

Reference: PubChem BioAssay AID248 (DTP/NCI, 2004)
